Publication PMC3946688
Substitutions are numbered along the chain they refer to. These are yes or no findings as the source states them, for the method shown. Binding seen in cells or lysates may run through a third protein. Some binding calls cover weakened binding; strength is not graded here. Where a sequence is shown, tags or fusion partners need not be part of it.

Amino acid sequences for entries named in this document (tags omitted).
UniProt P61244: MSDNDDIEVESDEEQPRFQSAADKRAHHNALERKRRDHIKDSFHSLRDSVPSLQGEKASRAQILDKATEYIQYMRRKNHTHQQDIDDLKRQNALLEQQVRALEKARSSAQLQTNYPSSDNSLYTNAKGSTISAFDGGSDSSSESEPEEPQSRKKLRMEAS

What was measured:
[1] = target: T1, Flag-tagged N-Myc K349R (mouse cDNA) (mouse) (UniProt P03966); assay: co-IP; 293T cells transfected with Flag-N-Myc (WT or K349R), with or without co-transfected SUMO-2 expression vector; non-denaturing co-IP lysis buffer (50 mM Tris pH 8, 5 mM EDTA, 150 mM NaCl, 0.5% NP-40, 5 mM NEM, 20 mM IAA); immunoprecipitation with anti-Flag M1 beads, immunoblot for endogenous Max
T1 sequence: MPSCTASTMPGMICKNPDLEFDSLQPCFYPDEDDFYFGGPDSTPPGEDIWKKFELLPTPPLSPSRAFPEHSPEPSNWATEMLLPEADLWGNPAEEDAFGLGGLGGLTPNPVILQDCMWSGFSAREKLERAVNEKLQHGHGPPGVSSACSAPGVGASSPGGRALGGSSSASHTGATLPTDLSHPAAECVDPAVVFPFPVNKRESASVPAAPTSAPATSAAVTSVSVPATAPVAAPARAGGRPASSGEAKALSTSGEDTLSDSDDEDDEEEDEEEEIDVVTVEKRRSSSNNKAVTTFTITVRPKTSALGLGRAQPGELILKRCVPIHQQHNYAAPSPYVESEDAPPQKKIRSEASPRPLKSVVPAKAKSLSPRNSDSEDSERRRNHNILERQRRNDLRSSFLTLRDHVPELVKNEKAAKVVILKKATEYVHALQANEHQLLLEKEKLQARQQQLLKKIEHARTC

[2] = target: T2, Flag-tagged N-Myc (wild type, mouse cDNA) (mouse) (UniProt P03966); assay: as above
T2 sequence: T1 sequence with R349K

- binding [1]: binds
- binding [2]: binds
Substance: endogenous Max (from UniProt P61244 1-160)
